Source: article doi:10.1101/2021.11.03.466767
Results are given in words; binding and its absence hold for the method and conditions named. In cells and extracts the contact can be indirect. Some results given as binding are weak or reduced against the parent protein; the word gives no strength.

Sequences of proteins named here, by UniProt entry; tags and fusion partners are left off. Residues count along the entry.
UniProt P15209, residues 32-821: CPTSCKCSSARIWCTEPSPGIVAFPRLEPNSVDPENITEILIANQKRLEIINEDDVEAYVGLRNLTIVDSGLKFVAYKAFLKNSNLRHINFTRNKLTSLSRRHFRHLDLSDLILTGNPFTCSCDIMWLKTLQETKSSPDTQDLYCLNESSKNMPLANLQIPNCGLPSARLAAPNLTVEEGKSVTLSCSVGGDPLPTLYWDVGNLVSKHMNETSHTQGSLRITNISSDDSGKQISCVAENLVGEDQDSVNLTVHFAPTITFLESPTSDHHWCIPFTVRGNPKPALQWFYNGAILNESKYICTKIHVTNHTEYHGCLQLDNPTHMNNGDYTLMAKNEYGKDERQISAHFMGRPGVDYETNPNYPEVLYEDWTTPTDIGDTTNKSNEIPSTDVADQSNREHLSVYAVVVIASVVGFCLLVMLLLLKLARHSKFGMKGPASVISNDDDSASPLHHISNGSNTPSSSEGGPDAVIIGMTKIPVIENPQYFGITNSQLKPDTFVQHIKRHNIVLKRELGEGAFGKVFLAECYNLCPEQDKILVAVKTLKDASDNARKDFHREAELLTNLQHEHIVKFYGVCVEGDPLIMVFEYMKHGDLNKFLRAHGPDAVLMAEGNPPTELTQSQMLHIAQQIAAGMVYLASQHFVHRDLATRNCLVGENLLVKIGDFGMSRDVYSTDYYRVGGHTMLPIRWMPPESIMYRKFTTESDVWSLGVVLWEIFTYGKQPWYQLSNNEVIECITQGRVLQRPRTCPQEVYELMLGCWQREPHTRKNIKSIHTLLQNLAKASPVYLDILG
UniProt Q01097, residues 27-1482: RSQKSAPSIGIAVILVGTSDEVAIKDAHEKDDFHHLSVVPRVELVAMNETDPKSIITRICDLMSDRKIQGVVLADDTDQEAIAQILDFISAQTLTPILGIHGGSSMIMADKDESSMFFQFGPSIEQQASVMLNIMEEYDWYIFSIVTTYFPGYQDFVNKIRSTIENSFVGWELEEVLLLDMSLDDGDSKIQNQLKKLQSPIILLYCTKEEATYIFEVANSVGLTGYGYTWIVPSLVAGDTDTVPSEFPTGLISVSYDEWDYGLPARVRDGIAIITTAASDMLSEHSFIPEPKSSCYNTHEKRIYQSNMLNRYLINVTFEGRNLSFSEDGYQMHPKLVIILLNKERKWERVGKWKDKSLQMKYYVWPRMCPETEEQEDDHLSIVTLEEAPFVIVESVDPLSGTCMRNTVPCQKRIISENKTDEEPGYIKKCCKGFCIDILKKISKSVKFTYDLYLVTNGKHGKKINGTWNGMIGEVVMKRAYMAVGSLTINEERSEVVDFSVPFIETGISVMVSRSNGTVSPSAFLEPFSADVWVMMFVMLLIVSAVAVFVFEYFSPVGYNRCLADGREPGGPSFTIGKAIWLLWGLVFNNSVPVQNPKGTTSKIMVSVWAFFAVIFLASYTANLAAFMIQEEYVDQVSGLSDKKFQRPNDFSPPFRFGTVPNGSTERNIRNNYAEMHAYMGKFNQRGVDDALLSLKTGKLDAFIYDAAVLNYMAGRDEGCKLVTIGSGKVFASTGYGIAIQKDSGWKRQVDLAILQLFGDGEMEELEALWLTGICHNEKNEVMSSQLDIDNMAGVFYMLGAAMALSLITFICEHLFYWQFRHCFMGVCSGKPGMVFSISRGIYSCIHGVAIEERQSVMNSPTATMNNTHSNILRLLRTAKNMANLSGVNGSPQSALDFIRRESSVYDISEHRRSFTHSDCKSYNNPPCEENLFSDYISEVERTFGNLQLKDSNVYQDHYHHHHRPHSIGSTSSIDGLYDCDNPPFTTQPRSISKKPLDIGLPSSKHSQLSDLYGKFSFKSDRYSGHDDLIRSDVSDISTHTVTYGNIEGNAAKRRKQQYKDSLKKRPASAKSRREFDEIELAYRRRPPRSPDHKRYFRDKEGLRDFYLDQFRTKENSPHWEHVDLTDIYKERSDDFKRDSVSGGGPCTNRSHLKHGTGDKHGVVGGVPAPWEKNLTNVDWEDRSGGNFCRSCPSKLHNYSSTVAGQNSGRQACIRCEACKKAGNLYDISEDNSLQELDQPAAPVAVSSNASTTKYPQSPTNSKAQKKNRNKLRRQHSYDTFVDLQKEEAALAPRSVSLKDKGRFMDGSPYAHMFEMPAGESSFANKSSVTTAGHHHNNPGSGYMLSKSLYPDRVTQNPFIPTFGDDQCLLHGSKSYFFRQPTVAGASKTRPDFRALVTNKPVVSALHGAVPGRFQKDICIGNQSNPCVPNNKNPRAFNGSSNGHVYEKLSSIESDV
UniProt Q9EPR5, residues 50-1159: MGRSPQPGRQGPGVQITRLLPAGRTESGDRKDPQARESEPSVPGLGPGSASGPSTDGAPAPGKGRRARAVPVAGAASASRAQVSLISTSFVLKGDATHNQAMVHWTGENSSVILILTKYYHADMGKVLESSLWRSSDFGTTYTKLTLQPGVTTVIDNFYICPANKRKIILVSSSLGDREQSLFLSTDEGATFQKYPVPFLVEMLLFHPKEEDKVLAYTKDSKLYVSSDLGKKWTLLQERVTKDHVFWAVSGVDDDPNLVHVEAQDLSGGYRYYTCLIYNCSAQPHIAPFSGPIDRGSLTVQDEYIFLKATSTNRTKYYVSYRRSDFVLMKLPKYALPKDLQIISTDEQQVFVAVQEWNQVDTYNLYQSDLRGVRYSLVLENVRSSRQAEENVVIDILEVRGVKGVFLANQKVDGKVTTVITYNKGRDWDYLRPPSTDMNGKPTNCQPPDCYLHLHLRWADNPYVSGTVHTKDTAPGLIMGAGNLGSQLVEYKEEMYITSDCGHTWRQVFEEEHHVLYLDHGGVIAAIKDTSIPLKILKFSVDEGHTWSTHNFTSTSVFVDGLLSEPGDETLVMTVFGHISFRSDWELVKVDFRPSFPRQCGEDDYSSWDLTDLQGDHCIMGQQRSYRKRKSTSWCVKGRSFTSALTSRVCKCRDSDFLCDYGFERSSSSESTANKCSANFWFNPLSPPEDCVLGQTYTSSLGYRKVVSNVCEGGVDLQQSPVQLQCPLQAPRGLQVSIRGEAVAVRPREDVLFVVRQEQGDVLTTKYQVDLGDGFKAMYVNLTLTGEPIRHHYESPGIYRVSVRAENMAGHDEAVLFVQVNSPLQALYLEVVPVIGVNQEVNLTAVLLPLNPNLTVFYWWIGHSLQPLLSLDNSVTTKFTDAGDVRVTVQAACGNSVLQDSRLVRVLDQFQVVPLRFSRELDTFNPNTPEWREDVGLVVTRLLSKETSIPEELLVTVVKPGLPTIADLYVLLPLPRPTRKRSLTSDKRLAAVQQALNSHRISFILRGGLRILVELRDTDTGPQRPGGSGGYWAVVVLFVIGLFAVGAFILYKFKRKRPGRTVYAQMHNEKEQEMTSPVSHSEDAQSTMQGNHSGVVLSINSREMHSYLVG

What was measured:
[1] = biological target: full length Tropomyosin related kinase receptor B (TrkB-FL), mouse (mouse (endogenous in dorsal striatum)) (UniProt P15209); assay: co-IP
[2] = biological target: Glutamate Ionotropic Receptor NMDA Type Subunit 2B (GluN2B), mouse (mouse (endogenous in dorsal striatum)) (UniProt Q01097); assay: proximity ligation

binding [1]: binds
binding [2]: binds
Substance: Sortilin Related VPS10 Domain Containing Receptor 2 (SorCS2), mouse (from UniProt Q9EPR5 50-1159)
